Measurements: PMC6515683
These are yes or no findings as the source states them, for the method shown. Binding seen in cells or lysates may run through a third protein. Some results given as binding are weak or reduced against the parent protein; the word gives no strength.

Chains of the proteins cited; added tags and fusions are not shown. Lines headed by an entry give the natural chain unless they say otherwise; changes in a name come on top.
UniProt P03372: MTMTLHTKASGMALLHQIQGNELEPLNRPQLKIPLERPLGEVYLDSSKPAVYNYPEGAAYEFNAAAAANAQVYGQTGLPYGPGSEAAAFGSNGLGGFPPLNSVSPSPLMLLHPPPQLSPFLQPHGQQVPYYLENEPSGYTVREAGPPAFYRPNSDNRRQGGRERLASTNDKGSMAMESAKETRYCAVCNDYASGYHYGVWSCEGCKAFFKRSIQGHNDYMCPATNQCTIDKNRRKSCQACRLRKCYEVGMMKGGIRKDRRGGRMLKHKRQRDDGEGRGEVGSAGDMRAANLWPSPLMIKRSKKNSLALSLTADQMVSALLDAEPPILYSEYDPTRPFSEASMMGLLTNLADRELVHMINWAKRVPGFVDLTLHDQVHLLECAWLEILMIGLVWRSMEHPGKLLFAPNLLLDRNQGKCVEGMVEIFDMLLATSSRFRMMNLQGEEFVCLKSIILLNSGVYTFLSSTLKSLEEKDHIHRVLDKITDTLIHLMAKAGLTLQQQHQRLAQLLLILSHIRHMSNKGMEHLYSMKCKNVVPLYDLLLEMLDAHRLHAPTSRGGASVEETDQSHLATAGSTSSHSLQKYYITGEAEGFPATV

Molecular target: estrogen receptor-alpha (human (endogenous in MCF7 and T47D)) (UniProt P03372)
Test: co-IP; ERα (F10) antibody sc-8002 on Dynabeads Protein A, incubated overnight at 4 °C with nuclear lysate of MCF7 or T47D cells in estrogenic conditions; western blot for GRHL2

binding: binds
B1: GRHL2 (protein, UniProt Q6ISB3 1-625)
chain: MSQESDNNKRLVALVPMPSDPPFNTRRAYTSEDEAWKSYLENPLTAATKAMMSINGDEDSAAALGLLYDYYKVPRDKRLLSVSKASDSQEDQEKRNCLGTSEAQSNLSGGENRVQVLKTVPVNLSLNQDHLENSKREQYSISFPESSAIIPVSGITVVKAEDFTPVFMAPPVHYPRGDGEEQRVVIFEQTQYDVPSLATHSAYLKDDQRSTPDSTYSESFKDAATEKFRSASVGAEEYMYDQTSSGTFQYTLEATKSLRQKQGEGPMTYLNKGQFYAITLSETGDNKCFRHPISKVRSVVMVVFSEDKNRDEQLKYWKYWHSRQHTAKQRVLDIADYKESFNTIGNIEEIAYNAVSFTWDVNEEAKIFITVNCLSTDFSSQKGVKGLPLMIQIDTYSYNNRSNKPIHRAYCQIKVFCDKGAERKIRDEERKQNRKKGKGQASQTQCNSSSDGKLAAIPLQKKSDITYFKTMPDLHSQPVLFIPDVHFANLQRTGQVYYNTDDEREGGSVLVKRMFRPMEEEFGPVPSKQMKEEGTKRVLLYVRKETDDVFDALMLKSPTVKGLMEAISEKYGLPVEKIAKLYKKSKKGILVNMDDNIIEHYSNEDTFILNMESMVEGFKVTLMEI
